Measured values from PubChem BioAssay AID1347075 (National Center for Advancing Translational Sciences (NCATS), 2019).
About 5,500 (1.4%) of roughly 400,000 compounds were called active. This list was built around the results that the source calls inconclusive (neither active nor inactive); the mix of calls is not that of the screen. Calls follow the shape of the dose curve; as a rule, active = well fitted cell-killing curve with a large enough effect; inconclusive = small, poorly fitted or top-dose-only effect, or effect the other way; inactive = flat fitted curve, though single readings scatter. Potencies beside an inconclusive call are fits to weak or partial responses and may not hold up.

Assay: qHTS assay for MDR1-selective chemotherapeutics: Primary screen using the parental adenocarcinoma cell KB-3-1; also: nearly all actives have a fitted effect of over 60% in size
Details: KB-3-1 viability, CellTiter-Glo ATP luminescence, 72 h; activity change, negative = cytotoxic: at 46.1 µM (top of the series)
Summary of the method: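 Multi-concentration cytotoxicity screen in KB-3-1 cells grown in DMEM lacking phenol red with 10% FBS. After 72 h at 37 °C with compound, ATP-dependent luminescence was recorded.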
% is scaled to controls: 0 for no effect and ±100 for the full control effect; potency is read from the fitted curve at half-maximal effect.

| Compound | Potency | activity change, negative = cytotoxic |
| --- | --- | --- |
| Cc1ccc(S(=O)(=O)N2CCCC2C(=O)N(C)Cc2cccs2)cc1 (stereo not given) | inactive |  |
| CO/N=C(/CS(=O)(=O)c1ccc(C)cc1)c1ccc(OC)cc1 | inconclusive: 29.1 µM [cytotoxic, single point] |  |
| CCC1(C)Nc2ccccc2C(=O)N1O (stereo not given) | inconclusive: 16.4 µM [cytotoxic, single point] |  |
| COc1cccc(CNC(=O)CN2C(=O)N(c3cccc(Cl)c3)S(=O)(=O)c3ccccc32)c1OC | inactive |  |
| Cc1c(CN2CCC(CO)(CCOc3ccccc3)CC2)[nH]c2ccc(Cl)cc12 | active: 14.6 µM |  |
| CCc1ccc(C(O)(CC(C)C)C(CN2CCOCC2)c2ccccc2)cc1 (stereo not given) | inconclusive: 29.1 µM [cytotoxic, single point] |  |
| CCOc1ccc2nc(NS(C)(=O)=O)sc2c1 | inconclusive: 23.1 µM [cytotoxic, single point] |  |
| O=C(NP(=O)(N1CCOCC1)N1CCOCC1)C1=C(N2CCOCC2)/C(=C\c2ccccc2)CC1 | inactive |  |
| COc1ccc(NC(=O)c2cc([N+](=O)[O-])ccc2N2CCCCC2)cc1 | inconclusive: 16.4 µM [cytotoxic, single point] |  |
| C=CCNc1oc(-c2cccs2)nc1S(=O)(=O)c1ccccc1 | inactive |  |
| Nc1nc(F)nc2c1ncn2[C@@H]1O[C@H](CO)[C@@H](O)[C@H]1O | active: 1.16 µM |  |
| CCOCCCNC(=O)c1cc2c(=O)n3cccc(C)c3nc2n1C | inconclusive: 0.651 µM [cytotoxic, full curve, poor fit] |  |
| COc1cc(C(=O)c2cc3c(cc2C)OCO3)cc(OC)c1OC | active: 0.164 µM |  |
| CSCc1ccc(C(=O)NC2CC(C)(C)Cc3c2cnn3-c2ccc(F)cc2)o1 (stereo not given) | inconclusive: 29.1 µM [cytotoxic, single point] |  |
| O=C(C[n+]1cc(Br)cc2ccccc21)c1ccccc1 | inactive |  |
| COC(=O)C(Cc1ccccc1)NC(=O)CCNC(=O)c1ccco1 (stereo not given) | inactive |  |
| Nc1[nH]c(=S)[nH]c(=O)c1N=O | inconclusive: 23.1 µM [rising, partial curve, poor fit] |  |
| CCOC(=O)c1sc2nc(CSc3ccccc3)[nH]c(=O)c2c1C | inconclusive: 29.1 µM [cytotoxic, single point] |  |
| O=C(CSc1nc2c(c(=O)n1-c1ccccc1)SCC2)N1CCOCC1 | inconclusive: 0.92 µM [rising, partial curve, poor fit] |  |
| CCOc1ccc(NC(=O)Cn2c(=O)n(CCCCC(=O)NCc3ccc4c(c3)OCO4)c(=O)c3ccccc32)cc1 | inactive |  |
| Nc1c(Cl)cc(C2=NCCn3nc4ccccc4c32)cc1Cl | active: 6.51 µM |  |
| CC1(C(=O)NS(=O)(=O)c2ccc(F)cc2F)CCN1C(=O)c1ccc(C2CCCCC2)cc1 (stereo not given) | inactive |  |
| CCOC(=O)C1=NOC(Cn2cc(C(C)=O)c(=O)[nH]c2=O)C1 (stereo not given) | inconclusive: 23.1 µM [cytotoxic, single point] |  |
| Cc1c(Cl)cnc(NC(=O)COC(=O)c2ccc3c(c2)OCO3)c1Cl | inconclusive: 0.206 µM [rising, full curve] |  |

| Compound | Potency | activity change, negative = cytotoxic |
| --- | --- | --- |
| CCOC(=O)CCc1nc2ccccc2[nH]c1=O | inactive |  |
| CN1C(=O)CC(N2CCN(CC(N)=O)CC2)C1=O (stereo not given) | inactive |  |
| Cc1c(Cl)cccc1Nc1nn2c(=O)c3ccc(C(=O)NCCC4=CCCCC4)cc3nc2s1 | inconclusive: 10.3 µM [cytotoxic, partial curve, poor fit] |  |
| O=C1c2ccccc2C(=O)N1c1ccc(S(=O)(=O)N2CCOCC2)c2ccccc12 | inconclusive: 25.9 µM [rising, single point] |  |
| Cc1ccc2c(c1)c1c3n2CCN(C(=O)c2ccc(C(F)(F)F)cc2)C3CCC1 (stereo not given) |  | inconclusive: -48.1% |
| Cc1nn(Cc2ccc(Cl)cc2Cl)c(C)c1NC(=O)Cn1nc([N+](=O)[O-])c(Cl)c1C | inconclusive: 29.1 µM [cytotoxic, single point] |  |
| COc1ccc(-c2cc(C(F)(F)F)n3nc(C(=O)Nc4cc(C)ccc4C)cc3n2)cc1 | inconclusive: 16.4 µM [rising, single point] |  |
| CC(C)C[C@@H](COCc1ccc([N+](=O)[O-])cc1)N1CCN(C(=O)c2ccc(C(F)(F)F)cc2)CCC1=O | inconclusive: 29.1 µM [cytotoxic, single point] |  |
| CC(C)(C)OC(=O)NCCc1nnc(SCc2ccc(Cl)cc2Cl)o1 | inconclusive: 25.9 µM [cytotoxic, single point] |  |
| Cc1nc(C)c(C(=O)NCCC(c2ccccc2)c2ccccc2)o1 | inconclusive: 29.1 µM [cytotoxic, single point] |  |
| Cc1cc(NC(=O)CCCSc2nc(-c3ccco3)cc(C(F)(F)F)n2)n(-c2ccccc2)n1 | inactive |  |
| CCc1nn(-c2cc(Cl)ccc2OC)c2c1C(=O)CCC2 | inconclusive: 29.1 µM [cytotoxic, single point] |  |
| CCn1c(CSc2nc(C)cc(C)n2)nnc1SCC(=O)N1CCCc2ccccc21 | inactive |  |
| O=C1C=C(c2cccc3c2Oc2ccccc2S3)C[C@@H](c2ccc(Cl)cc2)C1 |  | inconclusive: -6.88% |
| Cc1cc(C(=O)COc2ccccc2Cl)c(C)n1C1CC1 | inconclusive: 29.1 µM [cytotoxic, single point] |  |
| C#C[C@]1(O)CCC2C3CCC4=CC(=O)CC[C@@H]4C3CC[C@@]21C (stereo not given in full) | inconclusive: 18.4 µM [cytotoxic, single point] |  |
| COc1ccc(CCNC(=O)c2cc3c(=O)oc4ccc(C)cc4c3s2)cc1OC | inconclusive: 1.3 µM [rising, full curve] |  |
| CC(=O)OCC(=O)[C@@]1(O)CC[C@H]2[C@@H]3C[C@H](C)C4=CC(=O)C=C[C@]4(C)[C@H]3[C@@H](O)C[C@@]21C |  | inconclusive: 0% |
| O=C(COc1ccc(Br)cc1CNC1CCCCC1)NCCc1ccccc1 | inconclusive: 14.6 µM [cytotoxic, single point] |  |
| Cc1nc(=S)c2c([nH]1)-c1ccccc1CC21CCCCC1 | inconclusive: 23.1 µM [cytotoxic, single point] |  |
| Cc1cc(C)c(NC(=O)c2c(C)nn(-c3ccc(F)cc3)c2-n2cccc2)c(C)c1 | inconclusive: 18.4 µM [cytotoxic, single point] |  |
| CCOC(=O)N/N=C/c1cn(CCCOc2ccc(C)cc2)c2ccccc12 | inconclusive: 25.9 µM [cytotoxic, single point] |  |
| CCNc1nc(N)c(C(=O)c2ccc(Cl)s2)s1 | inconclusive: 16.4 µM [cytotoxic, single point] |  |
| CCc1ccc(-c2nc(SCC(=O)N(C)C3CCS(=O)(=O)C3)n[nH]2)cc1 (stereo not given) | inconclusive: 18.4 µM [rising, single point] |  |

Taken from above:
In Potency, `CCc1ccc(C(O)(CC(C)C)C(CN2CCOCC2)c2ccccc2)cc1` (stereo not given) reads inconclusive: 29.1 µM [cytotoxic, single point]
In Potency, `CC(C)(C)OC(=O)NCCc1nnc(SCc2ccc(Cl)cc2Cl)o1` reads inconclusive: 25.9 µM [cytotoxic, single point]
In Potency, `Cc1ccc(S(=O)(=O)N2CCCC2C(=O)N(C)Cc2cccs2)cc1` (stereo not given) reads inactive

Following part.

| Compound | Potency | activity change, negative = cytotoxic |
| --- | --- | --- |
| CCCCN(CC)S(=O)(=O)c1ccc(C(=O)N(CCCN(C)C)c2nc3cc(C)cc(C)c3s2)cc1 | inconclusive: 29.1 µM [cytotoxic, single point] |  |
| Cc1nc(N=C(N)N)nc2c(C)cccc12 | active: 10.3 µM |  |
| CCN(CC)S(=O)(=O)c1cc(C(=O)Nc2ccncc2)ccc1Cl | active: 20.6 µM |  |
| CCCCNC(=O)C(NC(=O)Cc1cc(OC)cc(OC)c1)C(=O)c1ccccc1 (stereo not given) | inactive |  |
| O=C1NC(=Nc2ccc(O)cc2)S/C1=C/c1ccco1 |  | inconclusive: -38.7% |
| Cc1cc2oc(=O)cc(CN3CCN(S(=O)(=O)c4ccc5c(c4)OCCO5)CC3)c2cc1C | inactive |  |
| N#CC(C#N)=C1C=C2C=C(N3CCOCC3)CCC2CC1 (stereo not given) | inconclusive: 3.66 µM [cytotoxic, partial curve, poor fit] |  |
| CSc1nc2sc(-c3ccccc3)cc2c(=O)n1N | inconclusive: 11.6 µM [cytotoxic, partial curve] |  |
| CCCOc1ccc2c(c1)C(=NN=C(N)N)c1cc(OCCC)ccc1-2 | inconclusive: 25.9 µM [cytotoxic, single point] |  |
| O=C(CN1C(=O)c2ccccc2C1=O)c1ccccc1 | inactive |  |
| C=C1c2cccc(OC)c2O[C@H](C(=O)OCC)[C@@H]1CCCCCC |  | inconclusive: 12.3% |
| COc1cc(OC)c(OC)cc1/C=C/c1cc(C(F)(F)F)[nH]c(=O)n1 | inconclusive: 29.1 µM [cytotoxic, single point] |  |
| Cc1cnc(NC(=O)c2ccccn2)s1 | inconclusive: 20.6 µM [cytotoxic, partial curve, poor fit] |  |
| CCc1ccc(NC(=O)C(C)OC(=O)c2ccc(NS(=O)(=O)c3ccc(C)c([N+](=O)[O-])c3)cc2)cc1 (stereo not given) | active: 23.1 µM |  |
| CC(C)(C)NS(=O)(=O)c1ccc(CCC(=O)Nc2cc(Cl)ccc2Oc2ccccc2)cc1 | inactive |  |
| Cc1ccc(NC(=O)c2ccc3c(c2)C(=O)N(CC2CCCO2)C3=O)cc1C (stereo not given) | inactive |  |
| COc1cc(OC)c(C(=O)/C=C/c2ccc(OCc3ccccc3)c(OC)c2)c(OC)c1 | inconclusive: 18.4 µM [cytotoxic, single point] |  |
| CCOc1ccc(NC(=O)CN(C)C(=O)c2c(-c3ccccc3)noc2C)cc1OCC | inactive |  |
| Cc1ccc(N2CCN(C(=O)c3cnn(-c4ccc(C)c(C)c4)c3C3CCNCC3)CC2)c(C)c1 | inconclusive: 29.1 µM [cytotoxic, single point] |  |
| O=C1c2ccccc2C(=O)N1CC1CCCO1 (stereo not given) | inconclusive: 25.9 µM [cytotoxic, partial curve, poor fit] |  |
| O=C(N/N=C/c1ccccn1)c1[nH]c2ccc([N+](=O)[O-])cc2c1-c1ccccc1 | active: 9.2 µM |  |
